Results as given in patent US20160200820A1.
No constants are given. Whether binding was seen depends on the method and setting. Some entries that bind do so weakly or less than the wild type.

Target: T1, murine CSF-1R on M-NFS-60 cells (mouse) (UniProt P09581)
T1 sequence (looked up): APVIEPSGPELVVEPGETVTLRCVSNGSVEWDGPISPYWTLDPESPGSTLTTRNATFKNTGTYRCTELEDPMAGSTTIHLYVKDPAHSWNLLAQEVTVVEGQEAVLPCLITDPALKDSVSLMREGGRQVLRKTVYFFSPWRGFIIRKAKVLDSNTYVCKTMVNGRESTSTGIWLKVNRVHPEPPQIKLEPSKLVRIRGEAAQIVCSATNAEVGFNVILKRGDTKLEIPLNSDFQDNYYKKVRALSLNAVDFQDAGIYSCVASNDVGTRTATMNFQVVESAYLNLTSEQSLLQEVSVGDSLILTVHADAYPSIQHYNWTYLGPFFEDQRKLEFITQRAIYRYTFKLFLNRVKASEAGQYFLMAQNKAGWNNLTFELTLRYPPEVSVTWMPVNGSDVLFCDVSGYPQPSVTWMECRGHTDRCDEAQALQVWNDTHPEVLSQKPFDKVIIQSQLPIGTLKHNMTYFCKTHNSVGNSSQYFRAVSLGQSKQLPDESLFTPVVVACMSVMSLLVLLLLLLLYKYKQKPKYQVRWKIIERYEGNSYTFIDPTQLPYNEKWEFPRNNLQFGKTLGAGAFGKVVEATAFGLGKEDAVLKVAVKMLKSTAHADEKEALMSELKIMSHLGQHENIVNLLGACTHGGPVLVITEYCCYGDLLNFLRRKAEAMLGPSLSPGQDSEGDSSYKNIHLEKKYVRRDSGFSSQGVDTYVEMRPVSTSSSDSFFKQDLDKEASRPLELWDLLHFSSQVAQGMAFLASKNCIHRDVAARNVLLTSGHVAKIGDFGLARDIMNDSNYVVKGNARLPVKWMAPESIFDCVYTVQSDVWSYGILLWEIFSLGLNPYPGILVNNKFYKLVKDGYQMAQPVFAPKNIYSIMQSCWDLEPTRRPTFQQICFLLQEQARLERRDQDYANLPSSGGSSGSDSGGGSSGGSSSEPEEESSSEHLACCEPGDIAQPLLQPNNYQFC
Assay: flow cytometry on M-NFS-60 cells

- binding: binds
B1: recombinant murine CSF-1 (ligand, mouse, UniProt P07141 33-188, looked up)
chain: KEVSEHCSHMIGNGHLKVLQQLIDSQMETSCQIAFEFVDQEQLDDPVCYLKKAFFLVQDIIDETMRFKDNTPNANATERLQELSNNLNSCFTKDYEEQNKACVRTFHETPLQLLEKIKNFFNETKNLLEKDWNIFTKNCNNSFAKCSSRDVVTKPD
